Assay results: patent US9732119B2, “Immunomodulators” (BRISTOL-MYERS SQUIBB COMPANY, priority 2014, dated 2017)

Protein sequences, listed by entry. Tags and fused reporters are not part of them. Chains listed by the source or under a name are the forms on record and can include a tag or linker.
UniProt Q9NZQ7, with tags, fused parts or gaps: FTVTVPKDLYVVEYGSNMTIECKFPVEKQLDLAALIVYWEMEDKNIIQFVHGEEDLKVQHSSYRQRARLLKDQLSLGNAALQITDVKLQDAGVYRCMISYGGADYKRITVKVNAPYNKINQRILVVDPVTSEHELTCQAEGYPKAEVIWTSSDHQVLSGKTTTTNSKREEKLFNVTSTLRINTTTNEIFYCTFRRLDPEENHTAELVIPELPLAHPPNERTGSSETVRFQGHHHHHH

Biological target: T1, PD-1-Ig binding to PD-L1-TVMV-His (PD-L1-His) (Homo sapiens, UniProt Q9NZQ7)
T1 construct: hPDL1(19-239)-TVMV-His; made in house; host or cells: HEK293T cells
Assay: PD-1/PD-L1 Homogenous Time-Resolved Fluorescence (HTRF) binding assay
Settings: PD-1-Ig (20 nM) / PD-L1-His (10 nM); range classes
Excerpt: The ability of the macrocyclic peptides of the present disclosure to bind to PD-L1 was investigated using a PD-1/PD-L1 Homogenous Time-Resolved Fluorescence (HTRF) binding assay.
Homogenous Time-Resolved Fluorescence (HTRF) Assays of Binding of Soluble PD-1 to Soluble PD-L1. Soluble PD-1 and soluble PD-L1 refers to proteins with carboxyl-end truncations that remove the transmembrane-spanning regions and are fused to heterologous sequences, specifically the Fc portion of the human immunoglobuling G sequence (Ig) or the hexahistidine epitope tag (His). All binding studies were performed in an HTRF assay buffer consisting of dPBS supplemented with 0.1% (w/v) bovine serum albumin and 0.05% (v/v) Tween-20. For the PD-1-Ig/PD-L1-His binding assay, inhibitors were pre-incubated with PD-L1-His (10 nM final) for 15 m in 4 μl of assay buffer, followed by addition of PD-1-Ig (20 nM final) in 1 μl of assay buffer and further incubation for 15 m. PD-L1 fusion proteins from either human, cynomologous macaques, mouse, or other species were used. HTRF detection was achieved using europium crypate-labeled anti-Ig monoclonal antibody (1 nM final) and allophycocyanin (APC) labeled anti-His monoclonal antibody (20 nM final). Antibodies were diluted in HTRF detection buffer and 5 μl was dispensed on top of binding reaction. […]

**Q.** How did the IC50 turn out when `CCCC[C@H]1C(=O)N(C)[C@@H](CCCC)C(=O)N[C@@H](CC(C)C)C(=O)N[C@H](C(=O)NCC(N)=O)CCCC(=O)N[C@@H](Cc2ccc(O)cc2)C(=O)N(C)[C@@H](C)C(=O)N[C@@H](CC(N)=O)C(=O)N2CCC[C@H]2C(=O)N[C@@H](CN)C(=O)N[C@@H](CC(C)C)C(=O)N2C[C@H](O)C[C@H]2C(=O)N[C@@H](Cc2c[nH]c3ccccc23)C(=O)N[C@@H](CCN)C(=O)N[C@@H](Cc2cn(CC(=O)O)c3ccccc23)C(=O)N1C` [Example 10514] was run?
**A.** 10 to 99 nM
